Results published in US9796727B2, “Field effect transistor” (Nippon Kayaku Kabushiki Kaisha, priority 2009, dated 2017).

Legend:
[1] = Top-contact (TC) field effect transistor, vapor-deposited semiconductor layer on HMDS-treated 300 nm SiO2/n-doped silicon; conditions: TC type; for Mobility: produced as in Example 2 (Table 3)
[2] = Bottom-contact (BC) field effect transistor, vapor-deposited semiconductor layer, with and without heat treatment; conditions: BC type; for Mobility after annealing: after annealing as in Example 6 (150° C., air, 1 hour); for Mobility: no annealing (Table 5)
[3] = TC field effect transistor, semiconductor film drop cast from 1-chloronaphthalene solution; conditions: for film forming by coating method: drop casting as in Example 9
[4] = BC field effect transistor, semiconductor layer cast coated from 1,2-dichlorobenzene ink; conditions: BC type, cast coating, 0.5% solution in 1,2-dichlorobenzene at 100° C.
[5] = BC field effect transistor, semiconductor layer spin coated from fine-particle dispersion ink; conditions: BC type, spin coating
[6] = TC field effect transistor with organic (polyimide) insulating film on ITO glass; conditions: TC type, drain voltage −60 V

Structure (SMILES) | Mobility [1] | Mobility after annealing [2] | Mobility [2] | film forming by coating method [3] | further results
CCCCCCc1ccc2cc3c(cc2c1)sc1c2cc4ccc(CCCCCC)cc4cc2sc31 [compound 6, 6,6′-Dihexyldinaphtho[2,3-b:2′,3′-f]thieno[3,2-b]thiophen] | 2.8 |  |  |  | 
c1ccc2cc3c(cc2c1)sc1c2cc4ccccc4cc2sc31 [ref. 1, dinaphtho[2,3-b:2′,3′-f]thieno[3,2-b]thiophene, reference compound] | 1.2 | 0.06 | 0.11 | film forming was not achieved | 
CCCCCCCCCCCCc1ccc2cc3c(cc2c1)sc1c2cc4ccc(CCCCCCCCCCCC)cc4cc2sc31 [Compound No. 14, 6,6′-Didodecyldinaphtho[2,3-b:2′,3′-f]thieno[3,2-b]thiophen] |  | 2.3 | 0.3 |  | carrier mobility [4]: 0.04 cm^2/Vs
CCCCCCCCc1ccc2cc3c(cc2c1)sc1c2cc4ccc(CCCCCCCC)cc4cc2sc31 [Compound No. 10, 6,6′-dioctyldinaphtho[2,3-b:2′,3′-f]thieno[3,2-b]thiophen] | 3.1 | 1.0 | 0.68 |  | threshold voltage ([1]; vapor deposition, HMDS-treated 300 nm SiO2): −10 V; carrier mobility ([1]; vapor deposition, HMDS-treated 300 nm SiO2, substrate about 60° C.): 3.1 cm^2/Vs; carrier mobility after heat treatment ([2]; heat-treated at 150° C. in the air for 1 hour): 1.00 cm^2/Vs; carrier mobility ([2]; vapor deposition, no heat treatment): 0.68 cm^2/Vs; carrier mobility ([3]; TC type, drop casting of 1-chloronaphthalene solution (200° C.), dried at 60° C.): 0.17 cm^2/Vs
CCCCCCCCCCc1ccc2cc3c(cc2c1)sc1c2cc4ccc(CCCCCCCCCC)cc4cc2sc31 [Compound No. 12, 6,6′-Didecyldinaphtho[2,3-b:2′,3′-f]thieno[3,2-b]thiophen] | 3.7 |  |  |  | ON/OFF ratio ([5]; 1.02% dispersion in 2-propanol): 1.10×10^6; carrier mobility ([5]; 1.02% dispersion in 2-propanol): 3.93×10^−2 cm^2/Vs; threshold voltage ([5]; 1.02% dispersion in 2-propanol): −16.7 V; carrier mobility ([5]; 2.0% dispersion in tetralin, heat treated at 140° C. for 5 min): 1.84×10^−2 cm^2/Vs; carrier mobility [6]: 3.9 cm^2/Vs; threshold voltage [6]: −8 V
CCCCc1ccc2cc3c(cc2c1)sc1c2cc4ccc(CCCC)cc4cc2sc31 [ref. 2, 6,6′-Dibutyldinaphtho[2,3-b:2′,3′-f]thieno[3,2-b]thiophen, reference compound] | 0.25 | 0.01 | 0.10 | film forming was not achieved | 
